Article PMC12408923
Results are given in words; binding and its absence hold for the method and conditions named. Binding seen in cells or lysates may run through a third protein. Some binding calls cover weakened binding; strength is not graded here.

The chains behind the UniProt entries cited, without tags or fusion partners.
UniProt Q9ULZ3: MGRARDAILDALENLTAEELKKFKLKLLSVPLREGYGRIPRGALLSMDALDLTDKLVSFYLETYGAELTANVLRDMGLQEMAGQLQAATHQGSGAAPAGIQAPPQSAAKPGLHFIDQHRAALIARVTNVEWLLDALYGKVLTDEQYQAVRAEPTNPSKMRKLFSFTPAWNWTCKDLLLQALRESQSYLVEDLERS
UniProt P29466: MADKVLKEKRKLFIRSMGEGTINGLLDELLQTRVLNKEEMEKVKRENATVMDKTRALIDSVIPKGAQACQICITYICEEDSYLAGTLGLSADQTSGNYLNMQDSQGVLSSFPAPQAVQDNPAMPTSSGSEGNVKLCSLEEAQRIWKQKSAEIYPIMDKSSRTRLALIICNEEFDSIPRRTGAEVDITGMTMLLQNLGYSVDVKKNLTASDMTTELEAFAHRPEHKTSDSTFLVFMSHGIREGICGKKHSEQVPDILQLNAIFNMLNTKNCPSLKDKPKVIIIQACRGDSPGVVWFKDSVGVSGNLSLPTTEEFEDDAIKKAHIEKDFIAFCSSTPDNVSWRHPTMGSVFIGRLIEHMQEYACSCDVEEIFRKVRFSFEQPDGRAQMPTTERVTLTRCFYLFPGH

Legend:
[1] = biological target: ASC, endogenous in human peripheral blood mononuclear cell-derived macrophages (HMDMs) (human (endogenous in HMDMs)) (UniProt Q9ULZ3); assay: co-IP; endogenous proteins of HMDMs primed with LPS (100 ng/mL, 4 h), ± DCL (3, 10, 30, 100 nM, 1 h), then ATP (5 mM, 45 min); lysate incubated with anti-ASC or anti-NLRP3 antibody or control IgG at 4°C overnight, protein A/G agarose beads; Western blotting
[2] = biological target: T1, apoptosis-associated speck-like protein containing a caspase recruitment domain (ASC), endogenous in mouse BMDMs (mouse (endogenous in BMDMs)) (UniProt Q9EPB4); assay: co-IP; endogenous proteins of BMDMs primed with LPS (100 ng/mL, 4 h), ± DCL (3, 10, 30, 100 nM, 1 h), then ATP (5 mM, 45 min); lysate incubated with anti-ASC or anti-NLRP3 antibody or control IgG at 4°C overnight, protein A/G agarose beads; Western blotting
T1 sequence: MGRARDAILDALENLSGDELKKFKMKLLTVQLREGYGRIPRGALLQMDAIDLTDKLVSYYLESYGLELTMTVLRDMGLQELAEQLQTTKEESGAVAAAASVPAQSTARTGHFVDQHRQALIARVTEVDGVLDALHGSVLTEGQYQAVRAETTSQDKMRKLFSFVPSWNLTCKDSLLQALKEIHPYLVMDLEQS

“pro-caspase-1, endogenous in human peripheral blood mononuclear cell-derived macrophages (HMDMs) (from UniProt P29466 1-404) (enzyme)” was tested, and the binding [1] was “binds”.

B1: pro-caspase-1, endogenous in mouse BMDMs (enzyme, UniProt P29452 1-402)
chain: MADKILRAKRKQFINSVSIGTINGLLDELLEKRVLNQEEMDKIKLANITAMDKARDLCDHVSKKGPQASQIFITYICNEDCYLAGILELQSAPSAETFVATEDSKGGHPSSSETKEEQNKEDGTFPGLTGTLKFCPLEKAQKLWKENPSEIYPIMNTTTRTRLALIICNTEFQHLSPRVGAQVDLREMKLLLEDLGYTVKVKENLTALEMVKEVKEFAACPEHKTSDSTFLVFMSHGIQEGICGTTYSNEVSDILKVDTIFQMMNTLKCPSLKDKPKVIIIQACRGEKQGVVLLKDSVRDSEEDFLTDAIFEDDGIKKAHIEKDFIAFCSSTPDNVSWRHPVRGSLFIESLIKHMKEYAWSCDLEDIFRKVRFSFEQPEFRLQMPTADRVTLTKRFYLFPGH
With B1 the binding [2] was “binds”.
